Assay results from patent publication US4839387A, “Derivative of thiazolidine-4-carboxylic acid, its preparation and pharmaceutical compositions containing it” (Poli Industria Chimica S.P.A., priority 1987, dated 1989).
At least one compound was matched to its structure with a doubt left. Non-standard residues stand in square brackets, D forms with d. Residues, ends and D or L forms follow the SMILES beside them. pGlu = O=C1CC[C@@H](C(=O)O)N1; Thz = O=C(O)[C@@H]1CSCN1

System: T cells forming rosettes with sheep red blood cells
Assay: T-cells forming rosette with sheep red blood cells
Type: in vivo, mouse
Details: Mice sensitized with red blood cells, 100 mg/kg b.i.d. i.p. for 8 days
Protocol: In the mouse, a cytotoxic-kind of hypersensivity reaction, evaluated in the test of T cells forming rosettes with sheep red blood cells, was used (S.D. Wilson Immunology, 1971, 21, 233). […]
CD-I male mice weighing about 25 g are treated with PGTCA for 8 days. After 4 days from the start of the treatment the animals were immunized with 5×10^8 sheep red blood cells in 0.2 ml of PBS i.p. The rosette test was carried out 6 days after the immunization. The mice were killed and the spleen was removed and placed in ice cold Hank solution, triturated, homogenized and gauze filtered.
6×10^7 /ml of spleen cells +100 /μl of red blood cell suspension 3×10^8 /μul were mixed in 0.8 ml of Hank and stirred for 1 min.
The samples were incubated for 24 h at 4° C. without stirring and then, after stirring, the number of rosette forming cells/ml was determined by the Burker apparatus.

Compound: O=C1CC[C@@H](C(=O)N2CSC[C@H]2C(=O)O)N1 [PGTCA, 3-L-pyroglutamyl-Lthiazolidine-4-carboxylic acid] ([pGlu]-[Thz]-OH)
- No. rosette/10^6 spleen cells m ± E.S.: 10840 ± 948 rosette/10^6 spleen cells
